Test results from paper PMC4899846.
No constants are given. Whether binding was seen depends on the method and setting. Binding seen in cells or lysates may run through a third protein.

Protein sequences, listed by entry. Tags and fused reporters are not part of them. Lines headed by an entry give the natural chain unless they say otherwise; changes in a name come on top. Chains listed by the source or under a name are the forms on record and can include a tag or linker.
Flag-tagged Δ(71–190) GPRC5A (Q8NFJ5, form named): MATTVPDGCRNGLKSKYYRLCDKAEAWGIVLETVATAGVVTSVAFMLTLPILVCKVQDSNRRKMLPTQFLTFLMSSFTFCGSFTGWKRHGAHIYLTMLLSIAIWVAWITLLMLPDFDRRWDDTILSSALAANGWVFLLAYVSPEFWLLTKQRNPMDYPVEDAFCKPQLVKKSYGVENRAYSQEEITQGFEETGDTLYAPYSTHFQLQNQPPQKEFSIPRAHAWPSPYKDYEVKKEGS
UniProt P60842: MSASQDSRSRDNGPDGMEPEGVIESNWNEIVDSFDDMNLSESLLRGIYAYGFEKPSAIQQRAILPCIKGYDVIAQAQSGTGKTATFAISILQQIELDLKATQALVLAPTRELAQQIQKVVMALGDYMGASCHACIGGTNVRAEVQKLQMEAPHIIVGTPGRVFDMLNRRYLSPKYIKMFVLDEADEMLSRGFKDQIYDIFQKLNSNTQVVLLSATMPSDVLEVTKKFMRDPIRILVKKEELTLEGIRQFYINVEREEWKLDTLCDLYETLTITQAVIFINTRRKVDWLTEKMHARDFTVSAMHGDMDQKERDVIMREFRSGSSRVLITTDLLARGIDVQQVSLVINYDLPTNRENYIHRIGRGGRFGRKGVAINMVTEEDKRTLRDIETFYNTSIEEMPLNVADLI

Target: Flag-tagged Δ(71–190) GPRC5A (human) (UniProt Q8NFJ5)
Test: co-IP; ANTI-FLAG M2 Affinity Gel on H1299 lysates; NP-40 lysis buffer (50 mM Tris-HCl pH 8.0, 150 mM NaCl, 1% NP-40) with RNase cocktail, 4 °C; western blot

binding: no binding
Substance: eIF4A1 (from UniProt P60842 1-406)
